In article PMC12040169 (PLOS Biology, 2025):
Some of the results follow.

Test system: T1, CTL2-GFP (C. trachomatis L2/434/Bu, GFP-expressing)
T1 construct: L2/434/Bu, GFP-expressing
Parameters: species or system HeLa; Intracellular C. trachomatis growth in HeLa cells, bulk GFP fluorescence relative to DMSO
Conditions: bulk GFP, single well; 28.5 h, 10 µM; inhibitor

SMILES	% of control remaining [%]
O=C(Nc1cccc2ccccc12)C1CCC(C(=O)Nc2cccc3ccccc23)CC1 (stereo not drawn) [CBK268706]	145.285
CC(=O)C1=C(C)NC(SCC(=O)c2ccc(F)cc2)=C(C#N)C1c1sccc1C (stereo not drawn) [CBK262624]	117.472
COCC1OC(n2cc(C)c(=O)[nH]c2=O)CC1O (stereo not drawn) [CBK201338]	162.956
Cc1ccc2c(c1)oc(=O)n2CCNC(=O)c1cccs1 [CBK284472]	87.8664
CCOc1ccc(-n2c(SCc3nc4ccccc4[nH]3)nc3sc4c(c3c2=O)CCCC4)cc1 [CBK264581]	119.494
CC(C)(C)NCC(O)COc1cccc2c3c(oc12)CCCC3 (stereo not drawn) [CBK008871C]	96.5732
O=C1N=C(NCC2CCCCC2)SC1CC(=O)N1Cc2ccccc2C1 (stereo not drawn) [CBK067016]	140.849
CCCCCc1nc(N)c(-c2cccc(Br)c2)c(C#N)c1CCCC [CBK026574]	104.474
CN1CCC(N2CCN(C(=O)NCc3ccc(Cl)c(Cl)c3)CC2)CC1 [CBK155883]	97.8528
Cc1nc(C(C)NC(=O)CCc2cnn(C)c2)c(C)s1 (stereo not drawn) [CBK307064]	113.933
O=S(=O)(c1ccc(I)cc1)n1ccc2c(N3CCNCC3)cncc21 [CBK081326C]	105.962
O=C(NCCc1c[nH]c2ccc(F)cc12)Nc1ccccc1 [CBK269964]	63.6327
O=C(c1c(F)cccc1F)N1C2CCC1c1snnc1C2 (stereo not drawn) [CBK284990]	115.763
Cn1c(=O)n(C)c2cc(CNCc3ccccn3)ccc21 [CBK288118]	126.653
CCOC(=O)N1CCC(NS(=O)(=O)Cc2ccccc2)CC1 [CBK045457]	108.138
CN1CC(C(=O)NCC(c2ccccc2)N2CCCCCC2)CC1=O (stereo not drawn) [CBK282008]	100.36
CC(C)(C)c1[nH]c2ncccc2c1CN1CCSCC1 [CBK285340]	146.879
Cc1nc2cc(C(=O)O)ccc2n1CCO [CBK260949]	121.067
COc1ccc2cc(/C=C(\C#N)c3nc(-c4cc5ccccc5oc4=O)cs3)c(Cl)nc2c1 [CBK261623]	116.501
c1ccc(OCCCCN2CCCC23CCc2[nH]c4ccccc4c2C3)cc1 (stereo not drawn) [CBK092200T]	97.6296

SMILES	% of control remaining [%]
Cn1ccc2cc(-c3cn4ccnc4c(N4CCOCC4)n3)ccc21 [CBK066696]	108.033
O=C(NC1CCCCC1)N[C@H]1CO[C@H]2[C@@H]1OC[C@@H]2n1cc(CC2CCCCC2)nn1 [CBK289510]	145.077
CCN(CC)CCSc1nc(O)c(-c2ccccc2)c(=O)n1-c1ccccc1 [CBK263335C]	86.2551
Cc1cc2n(n1)C(c1ccc(C(=O)O)cc1)Nc1ccccc1-2 (stereo not drawn) [CBK287000]	124.824
CC(=O)N1C[C@@H]2C[C@H](C1)c1ccc(NC(=O)c3ccc(C#N)cc3)c(=O)n1C2 [CBK289202]	137.414
c1ccc2c(c1)NCC21CCNCC1 [CBK022583]	100.426
CSCC[C@H](NC(=O)Nc1ccc(N2CCC(C)CC2)cc1)C(=O)O [CBK286743]	128.695
COc1cc(S(=O)(=O)NCCOc2ccc(C(=O)O)cc2)c(OC)cc1Cl [CBK299825]	126.59
C[N+]1(C)CCCC1c1cc(Br)cnc1N (stereo not drawn) [CBK217873I]	108.94
O=C(/C=C/c1ccco1)Nc1sc2c(c1C(=O)NCc1ccco1)CCC2 [CBK265616]	106.939
O=C1CCCN1CCOc1nccnc1-c1ccc(F)cc1 [CBK106895]	99.1031
CCC(C(=O)Nc1ccccc1C(=O)Nc1c(Cl)cccc1Cl)c1ccccc1 (stereo not drawn) [CBK266068]	115.653
Nc1ncc(-c2cccnc2)nc1NCc1ccccc1 [CBK063349]	214.745
O=C(c1ccccc1)N1CCC(c2cc3ncccc3[nH]2)CC1 [CBK283385]	130.142
O=C(O)c1cccc(NS(=O)(=O)c2ccc(Cl)c(C(=O)Nc3ccc(Br)cc3)c2)c1 [CBK263241]	107.307
COc1cc(-c2cc(N3CCN(CCN4CCCC4)CC3)ncn2)cc(OC)c1OC [CBK037841]	106.181
OC(Cn1cnc(-c2ccccc2)c1-c1ccccc1)Cn1c2ccccc2c2ccccc21 (stereo not drawn) [CBK261416]	100
Cc1ccc2c(CC(=O)N3CCNCC3c3cnn(C)c3)coc2c1C (stereo not drawn) [CBK304271C]	101.922
Cc1ccc(C(=O)NCc2ccc(-c3n[nH]cc3C(=O)N(C)Cc3ccccc3)cc2)cc1 [CBK285598]	105.499

Among those listed so far, 5 have a COOH group:
SMILES	% of control remaining [%]
Cc1nc2cc(C(=O)O)ccc2n1CCO [CBK260949]	121.067
Cc1cc2n(n1)C(c1ccc(C(=O)O)cc1)Nc1ccccc1-2 (stereo not drawn) [CBK287000]	124.824
CSCC[C@H](NC(=O)Nc1ccc(N2CCC(C)CC2)cc1)C(=O)O [CBK286743]	128.695
COc1cc(S(=O)(=O)NCCOc2ccc(C(=O)O)cc2)c(OC)cc1Cl [CBK299825]	126.59
O=C(O)c1cccc(NS(=O)(=O)c2ccc(Cl)c(C(=O)Nc3ccc(Br)cc3)c2)c1 [CBK263241]	107.307
